Results as given in the supplement of paper PMC4604168 (melanoma cell lines).
The other results are listed elsewhere or left out. Many values rest on one well or one pass, so single values are uncertain.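 Cells were imaged in 1,536-well plates, and nuclei stained with an antibody against cleaved PARP were counted against all DNA-stained nuclei to give the apoptosis fraction. Screening doses were chosen to leave most cells alive, and resting and induced cleaved-PARP levels differ strongly between cell lines.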

Assays:
Assay in all cases: cleaved PARP positive nuclei fraction relative to DMSO control; melanoma cells; higher = more apoptosis
Conditions in all cases: library dose: low library concentration; 72 h
501Mel = test system: 501Mel
A101D = test system: A101D
A2058 = test system: A2058
A375 = test system: A375
C32 = test system: C32
CBRC013 = test system: CBRC013 (line from a melanoma biopsy)
CBRC014 = test system: CBRC014 (line from a melanoma biopsy)
CBRC016 = test system: CBRC016 (line from a melanoma biopsy)
CBRC017 = test system: CBRC017 (line from a melanoma biopsy)
CBRC034 = test system: CBRC034 (line from a melanoma biopsy)
COLO792 = test system: COLO792
COLO800 = test system: COLO800
COLO829 = test system: COLO829
G361 = test system: G361
IPC-298 = test system: IPC-298
IST-MEL1 = test system: IST-MEL1
LB2518-MEL = test system: LB2518-MEL
LOXIMVI = test system: LOXIMVI

Structure (SMILES)	cleaved PARP positive nuclei fraction (501Mel)	cleaved PARP positive nuclei fraction (A101D)	cleaved PARP positive nuclei fraction (A2058)	cleaved PARP positive nuclei fraction (A375)	cleaved PARP positive nuclei fraction (C32)	cleaved PARP positive nuclei fraction (CBRC013)	cleaved PARP positive nuclei fraction (CBRC014)	cleaved PARP positive nuclei fraction (CBRC016)	cleaved PARP positive nuclei fraction (CBRC017)	cleaved PARP positive nuclei fraction (CBRC034)	cleaved PARP positive nuclei fraction (COLO792)	cleaved PARP positive nuclei fraction (COLO800)	cleaved PARP positive nuclei fraction (COLO829)	cleaved PARP positive nuclei fraction (G361)	cleaved PARP positive nuclei fraction (IPC-298)	cleaved PARP positive nuclei fraction (IST-MEL1)	cleaved PARP positive nuclei fraction (LB2518-MEL)	cleaved PARP positive nuclei fraction (LOXIMVI)
CC(C)(C)c1cnc(CSc2cnc(NC(=O)C3CCNCC3)s2)o1 + COc1ccc(COc2ccc(Cc3cnc(N)nc3N)cc2OC)cc1 [GW2580] (first compound 0.01 µM, partner dose 1 µM)	75.3%	111%	52.8%	12.8%	145%	70.4%	90%	46.3%	65.8%	180%	97.7%	67.9%	107%	156%	51%	235%	84.2%	112%
Cn1c(Nc2ccc(C(F)(F)F)cc2)nc2cc(Oc3ccnc(-c4ncc(C(F)(F)F)[nH]4)c3)ccc21 + CCN(CC)CCCCNc1ncc2cc(-c3cc(OC)cc(OC)c3)c(NC(=O)NC(C)(C)C)nc2n1 [PD173074] (first compound 0.08 µM, partner dose 0.1 µM)	265%	129%	232%	59.9%	175%	67.1%	97.8%	169%	45.6%	103%	371%	94.5%	63.2%	168%	70.4%	148%	169%	74%
COc1cc(Nc2ncc(F)c(Nc3ccc4c(n3)NC(=O)C(C)(C)O4)n2)cc(OC)c1OC [Tamatinib] + CC(C)CCN1c2nc(Nc3cc(F)c(O)c(F)c3)ncc2N(C)C(=O)C1C [BID1870] (first compound 0.4 µM, partner dose 0.2 µM)	46.7%	104%	189%	229%	64.2%	68.2%	113%	90%	64.9%	47.6%	301%	160%	102%	144%	207%	36.5%	372%	1530%
OCCn1cc(-c2cnc3nnn(Cc4ccc5ncccc5c4)c3n2)cn1 + Oc1nc(-c2ccc(C(F)(F)F)cc2)nc2c1CSCC2 [XAV939] (first compound 1 µM, partner dose 2 µM)	70.9%	107%	130%	66.7%	120%	57.1%	94.1%	80.5%	69.1%	45.1%	201%	188%	32.5%	228%	40.1%	271%	84.6%	425%
Cc1cc(N2CCOCC2)cc2[nH]c(-c3c(NC[C@@H](O)c4cccc(Cl)c4)cc[nH]c3=O)nc12 + c1cc(-c2cnn3cc(-c4ccc(OCCN5CCCCC5)cc4)cnc23)ccn1 [Dorsomorphin] (first compound 0.2 µM, partner dose 0.4 µM)	116%	108%	239%	62.2%	232%	153%	103%	43.4%	166%	92.3%	145%	116%	67.2%	91.1%	65.6%	183%	76.7%	109%
CC1(C)NC(=O)N(c2ccc([N+](=O)[O-])c(C(F)(F)F)c2)C1=O [nilutamide] + COc1ccc(-c2ccc3c(N4CCOCC4)nc(N4C[C@@H](C)O[C@@H](C)C4)nc3n2)cc1CO [KU0063794] (first compound 1 µM, partner dose 0.02 µM)	61.1%	104%	21.7%	102%	97.2%	135%	78.3%	70.5%	67.1%	44.6%	100%	199%	89.3%	46.8%	98.6%	126%	81%	68.2%
CC1(C)NC(=O)N(c2ccc([N+](=O)[O-])c(C(F)(F)F)c2)C1=O [nilutamide] + O=C(O)C(=O)Nc1sc2c(c1C(=O)O)CCNC2 [TCS401] (first compound 1 µM, partner dose 1.66667 µM)	68.7%	223%	190%	124%	115%	96.2%	83.6%	84.3%	71%	82.9%	65%	135%	134%	74.7%	38.9%	39.3%	81.8%	70.4%
COCC[n+]1c2c(n(Cc3cnccn3)c1C)C(=O)c1ccccc1C2=O + O=C1NC(=O)/C(=C/c2ccc(-c3ccc(F)cc3O)o2)S1 [AS252424] (first compound 0.0004 µM, partner dose 1 µM)	62.5%	60.3%	72.9%	57%	42.9%	52.6%	83.2%	103%	61.6%	55.2%	208%	105%	218%	186%	161%	85.2%	87.3%	76.2%
C[C@]1(c2nc3c(C(N)=O)cccc3[nH]2)CCCN1 [Veliparib] + O=S(=O)(c1ccccc1)N(CC(F)(F)F)c1ccc(C(O)(C(F)(F)F)C(F)(F)F)cc1 [T0901317] (first compound 1.4 µM, partner dose 1.4 µM)	178%	57%	45%	212%	104%	317%	112%	21.2%	90.6%	170%	100%	122%	102%	32.7%	62.2%	41.8%	186%	129%
Cn1nnc2c(C(N)=O)ncn2c1=O [temozolomide] + Oc1cc(-c2nc(-c3ccccc3)[nH]c2-c2ccncc2)ccc1Cl [L779450] (first compound 2 µM, partner dose 0.2 µM)	93.2%	102%	162%	167%	56.2%	38.9%	110%	183%	128%	97.4%	86%	27.7%	79.1%	101%	147%	92.8%	95.2%	36.1%
COc1cc(Nc2ncc(F)c(Nc3ccc4c(n3)NC(=O)C(C)(C)O4)n2)cc(OC)c1OC [Tamatinib] + COc1ccc(COc2ccc(Cc3cnc(N)nc3N)cc2OC)cc1 [GW2580] (first compound 0.4 µM, partner dose 1 µM)	207%	97.1%	56.3%	166%	130%	47.7%	93.2%	82.6%	81.7%	40.2%	190%	151%	93.1%	134%	162%	115%	189%	36.4%
COc1cc(Nc2ncc(F)c(Nc3ccc4c(n3)NC(=O)C(C)(C)O4)n2)cc(OC)c1OC [Tamatinib] + COC(=O)c1sccc1S(=O)(=O)Nc1ccc(Nc2ccccc2)cc1OC [GSK0660] (first compound 0.4 µM, partner dose 1 µM)	83%	109%	98.8%	94.8%	122%	284%	97.7%	18.6%	100%	43.3%	205%	184%	91.1%	237%	56.6%	72.2%	86.8%	39.7%
Nc1cccc2c1CN(C1CCC(=O)NC1=O)C2=O (centres undefined) [lenalidomide] + O=c1cc(-c2cccc3c2Sc2ccccc2S3)oc(N2CCOCC2)c1 [KU55933] (first compound 1 µM, partner dose 1 µM)	71.1%	211%	73.5%	203%	72.1%	74.9%	89.5%	80.1%	90.2%	76.3%	122%	133%	76.6%	24%	216%	107%	64.9%	48.8%
COCC[n+]1c2c(n(Cc3cnccn3)c1C)C(=O)c1ccccc1C2=O + COc1ccc(-c2ccc3c(N4CCOCC4)nc(N4C[C@@H](C)O[C@@H](C)C4)nc3n2)cc1CO [KU0063794] (first compound 0.0004 µM, partner dose 0.02 µM)	251%	79.3%	219%	262%	97.4%	112%	82.3%	42.3%	80.8%	98.2%	270%	131%	48.6%	92.9%	96.4%	39%	332%	51.7%
OCCn1cc(-c2cnc3nnn(Cc4ccc5ncccc5c4)c3n2)cn1 + N#Cc1c(O)c2c(-c3ccc(-c4ccccc4O)cc3)csc2[nH]c1=O [A769662] (first compound 1 µM, partner dose 2 µM)	101%	79%	153%	103%	60.8%	307%	88.9%	60.6%	97.7%	188%	124%	126%	103%	33%	43.1%	179%	88%	49.7%
C[C@]1(c2nc3c(C(N)=O)cccc3[nH]2)CCCN1 [Veliparib] + CCCCCCCCCCCC1=C(O)C(=O)C=C(O)C1=O [Embelin] (first compound 1.4 µM, partner dose 1.2 µM)	179%	86.6%	70.7%	78.2%	77.1%	228%	105%	119%	99.6%	42.1%	56.3%	30.9%	25.7%	74.5%	62.9%	92.4%	88.6%	35.8%
C[C@@H]1CCN(C(=O)CC#N)C[C@@H]1N(C)c1ncnc2[nH]ccc12 + O=C(O)C(=O)Nc1sc2c(c1C(=O)O)CCNC2 [TCS401] (first compound 1 µM, partner dose 1.66667 µM)	76.3%	61.4%	83.7%	91.5%	65.3%	43.3%	83.4%	19.4%	73.5%	176%	97.1%	184%	45.4%	70.4%	123%	523%	94.1%	115%
OCCn1cc(-c2cnc3nnn(Cc4ccc5ncccc5c4)c3n2)cn1 + COc1ccc(COc2ccc(Cc3cnc(N)nc3N)cc2OC)cc1 [GW2580] (first compound 1 µM, partner dose 1 µM)	137%	106%	194%	161%	130%	92.6%	96.9%	68.7%	59.8%	72.2%	42.8%	80.2%	72.7%	82.3%	27.5%	180%	95.1%	57.4%

Single records (already shown). Order of values: cleaved PARP positive nuclei fraction (501Mel)	cleaved PARP positive nuclei fraction (A101D)	cleaved PARP positive nuclei fraction (A2058)	cleaved PARP positive nuclei fraction (A375)	cleaved PARP positive nuclei fraction (C32)	cleaved PARP positive nuclei fraction (CBRC013)	cleaved PARP positive nuclei fraction (CBRC014)	cleaved PARP positive nuclei fraction (CBRC016)	cleaved PARP positive nuclei fraction (CBRC017)	cleaved PARP positive nuclei fraction (CBRC034)	cleaved PARP positive nuclei fraction (COLO792)	cleaved PARP positive nuclei fraction (COLO800)	cleaved PARP positive nuclei fraction (COLO829)	cleaved PARP positive nuclei fraction (G361)	cleaved PARP positive nuclei fraction (IPC-298)	cleaved PARP positive nuclei fraction (IST-MEL1)	cleaved PARP positive nuclei fraction (LB2518-MEL)	cleaved PARP positive nuclei fraction (LOXIMVI)
CC1(C)NC(=O)N(c2ccc([N+](=O)[O-])c(C(F)(F)F)c2)C1=O [nilutamide] + COc1ccc(-c2ccc3c(N4CCOCC4)nc(N4C[C@@H](C)O[C@@H](C)C4)nc3n2)cc1CO [KU0063794] (first compound 1 µM, partner dose 0.02 µM) is listed as 61.1%	104%	21.7%	102%	97.2%	135%	78.3%	70.5%	67.1%	44.6%	100%	199%	89.3%	46.8%	98.6%	126%	81%	68.2%
Cn1nnc2c(C(N)=O)ncn2c1=O [temozolomide] + Oc1cc(-c2nc(-c3ccccc3)[nH]c2-c2ccncc2)ccc1Cl [L779450] (first compound 2 µM, partner dose 0.2 µM) is listed as 93.2%	102%	162%	167%	56.2%	38.9%	110%	183%	128%	97.4%	86%	27.7%	79.1%	101%	147%	92.8%	95.2%	36.1%
